In series [1] the test system is captopril-treated, saline-drinking SHRSP. The series can be described thus: Protocol 2: Angiotensin II-induced renal damage in captopril-treated saline-drinking SHRSP. It counts as in vivo, male SHRSP/A3N. The note with it: for Absolute kidney weight at autopsy / Body weight: end of the experiment. As for the experimental part:
(§1) Animals. Studies were conducted in accordance with institutional guidelines using male SHRSP/A3N (generations F-75 to F-78), n = 37, from our local colony. These animals were bred from NIH stock, derived from the SHRSP/A3N substrain described originally by Okamoto and coworkers (Okamoto K et al. Circ. Res. 34 and 35 (suppl I):I-143-I-153.). All animals were housed in a room maintained on a 12:12-h light:dark-cycle and an ambient temperature of 22 ± 1°C in the Animal Care Facility at New York Medical College. Rats were weaned at 4 weeks of age and allowed free access to Purina Lab Chow 5001 (Ralston Purina, St. Louis, MO) and tap water until the initiation of experimental protocols.
SHRSP were placed on Stroke-Prone Rodent Diet (#39-288, Zeigler Bros Inc., Gardners, PA) and 1% NaCl drinking solution ad libitum starting at 8.3 weeks of age. […] Animals were handled and weighed daily. Urine samples were collected for the assessment of proteinuria. Systolic blood pressure and heart rate were measured each week. After 2 weeks of treatment, animals were decapitated, trunk blood was collected into chilled EDTA tubes, and the kidneys were removed, blotted dry, and immediately weighed. Coronal sections of kidney were fixed and later processed for light microscopic evaluation.
Assays and Analyses. Systolic blood pressure and heart rate of awake animals were measured by tail-cuff plethysmography using a Natsume KN-210 manometer and tachometer (Peninsula Laboratories Inc., Belmont, CA). Rats were warmed at 37°C for 10 min and allowed to rest quietly in a Lucite chamber before measurement of blood pressure. Measurements of urine volume were made gravimetrically. Urinary protein concentration was determined by the sulfosalicylic acid turbidity method. Plasma aldosterone was measured by radioimmunoassay using ^125I-aldosterone as a tracer (Coat-a Count Aldosterone, Diagnostic Products Co., Los Angeles, CA).
Histology. Kidneys were preserved in 10% phosphate-buffered formalin. Coronal sections (2-3 µm) were stained with hematoxylin and eosin and examined by light microscopy in a blinded fashion as previously described (Stier CT et al. J Pharmacol Exp Ther (1992) 260:1410-1415). Glomerular damage was categorized as ischemic or thrombotic. Ischemic lesions were defined as retraction of glomerular capillary tufts with or without appreciable mesangiolysis. Glomerular thrombotic lesions were defined as any one of a combination of the following: segmental to global fibrinoid necrosis, focal thrombosis of glomerular capillaries, swelling and proliferation of intracapillary (endothelial and mesangial) and/or extracapillary cells (crescents), and expansion of reticulated mesangial matrix with or without significant hypercellularity. […] Vascular thrombotic lesions were defined as any one or a combination of the following: mural fibrinoid necrosis, extravasation and fragmentation of red blood cells, and luminal and/or mural thrombosis. […] Vascular damage was expressed as the number of arteries and arterioles with lesions per 100 glomeruli. The presence of casts and tubular (ischemic) retraction and simplification was assessed semiquantitatively.
Statistical Analysis. Significant effects with respect to treatment and time were determined by two-way analysis of variance. Data with only one grouping variable were analyzed statistically by Student's unpaired t tests. […] Data were analyzed using version 2.01 of the GraphPad Prism statistical software package (GraphPad Software Inc., San Diego, CA). […]

Series [2] deals with saline-drinking SHRSP. Nature of the series: Protocol 1: renal pathologic changes in saline-drinking SHRSP. It counts as in vivo, male SHRSP/A3N. The note with it: 100 mg/kg/d, 5 weeks. On the procedure:
as §1
Eighteen SHRSP were given 1% NaCl to drink and were fed Stroke-Prone Rodent Diet (#39-288, Zeigler Brothers, Inc., Gardners, PA) starting at 8.1 weeks of age. […] Systolic arterial pressure and heart rate were measured each week in awake rats. […]
Assays and Analyses. Systolic blood pressure and heart rate of awake animals were measured by tail-cuff plethysmography using a Natsume KN-210 manometer and tachometer (Peninsula Laboratories Inc., Belmont, CA). […] Urinary protein concentration was determined by the sulfosalicylic acid turbidity method. Plasma aldosterone was measured by radioimmunoassay using ^125I-aldosterone as a tracer (Coat-a Count Aldosterone, Diagnostic Products Co., Los Angeles, CA). […]

Series [3] in a line: Plasma renin activity and serum aldosterone as a function of the eplerenone dose (Figure 12). The class given is in vivo, human subject. The note with it: increasing doses of eplerenone.

`C[C@H](CS)C(=O)N1CCC[C@H]1C(=O)O` [Captopril, captopril, reference compound]: the plasma aldosterone concentration in series [1] (captopril alone, or captopril plus angiotensin II plus eplerenone, Figure A-18) came out at 107 ± 26 pg/mL. In series [1], the “Absolute kidney weight at autopsy” value was found to be 2.56 ± 0.06 g and the Body weight is on record as 258 ± 6 g.

On to `COC(=O)[C@@H]1CC2=CC(=O)CC[C@]2(C)[C@@]23O[C@@H]2C[C@@]2(C)[C@@H](CC[C@@]24CCC(=O)O4)[C@H]13` [Eplerenone, Pregn-4-ene-7,21-dicarboxylic acid, 9,11-epoxy-17-hydroxy-3-oxo-, γ-lactone, methyl ester, (7α, 11α, 17β)-], for which, in series [1], the “Absolute kidney weight at autopsy” value amounted to 2.00 ± 0.03 g and the Body weight is 234 ± 5 g. Moreover, in series [2], the “Absolute kidney weight at autopsy” value was determined as 2.58 ± 0.06 g and the terminal body weight turned out to be 279 ± 7 g. In series [3], the plasma renin activity entry is reported as “increased levels of plasma renin activity” and the serum aldosterone entry is given as “increased levels of serum aldosterone”.

(Values after patent publication EP1289507B1, “USE OF AN ALDOSTERONE ANTAGONIST FOR THE TREATMENT OR PROPHYLAXIS OF ALDOSTERONE-MEDIATED PATHOGENIC EFFECTS” (priority 2000, dated 2001).)
